# Measured values: the supplement of paper PMC6411743
# By UniProt entry, the sequences of proteins in these tests, tags left out. Where a name states a change or a piece, a line headed by the entry shows the natural chain unless it says otherwise.
# UniProt Q86SE9: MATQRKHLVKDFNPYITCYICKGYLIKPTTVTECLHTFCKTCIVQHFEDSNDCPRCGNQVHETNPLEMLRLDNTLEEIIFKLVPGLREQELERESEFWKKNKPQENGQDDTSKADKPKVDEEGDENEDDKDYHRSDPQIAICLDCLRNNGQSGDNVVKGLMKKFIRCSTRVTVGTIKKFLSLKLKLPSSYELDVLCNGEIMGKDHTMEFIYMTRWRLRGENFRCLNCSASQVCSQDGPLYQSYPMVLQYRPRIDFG
# UniProt Q86VR2, whole entry: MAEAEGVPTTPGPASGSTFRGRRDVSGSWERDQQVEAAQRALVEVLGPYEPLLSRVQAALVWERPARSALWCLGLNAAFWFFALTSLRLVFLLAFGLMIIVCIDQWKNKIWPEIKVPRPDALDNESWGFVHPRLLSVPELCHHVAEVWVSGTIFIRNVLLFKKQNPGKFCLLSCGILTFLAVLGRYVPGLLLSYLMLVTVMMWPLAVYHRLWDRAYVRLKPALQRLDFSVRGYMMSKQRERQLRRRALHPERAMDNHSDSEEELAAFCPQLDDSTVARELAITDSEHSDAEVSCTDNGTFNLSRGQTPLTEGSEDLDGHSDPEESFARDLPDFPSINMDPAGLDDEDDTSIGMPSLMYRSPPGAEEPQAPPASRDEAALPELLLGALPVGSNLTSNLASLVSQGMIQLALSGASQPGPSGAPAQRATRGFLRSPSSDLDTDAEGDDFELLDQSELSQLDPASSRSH
# UniProt Q8IUH5: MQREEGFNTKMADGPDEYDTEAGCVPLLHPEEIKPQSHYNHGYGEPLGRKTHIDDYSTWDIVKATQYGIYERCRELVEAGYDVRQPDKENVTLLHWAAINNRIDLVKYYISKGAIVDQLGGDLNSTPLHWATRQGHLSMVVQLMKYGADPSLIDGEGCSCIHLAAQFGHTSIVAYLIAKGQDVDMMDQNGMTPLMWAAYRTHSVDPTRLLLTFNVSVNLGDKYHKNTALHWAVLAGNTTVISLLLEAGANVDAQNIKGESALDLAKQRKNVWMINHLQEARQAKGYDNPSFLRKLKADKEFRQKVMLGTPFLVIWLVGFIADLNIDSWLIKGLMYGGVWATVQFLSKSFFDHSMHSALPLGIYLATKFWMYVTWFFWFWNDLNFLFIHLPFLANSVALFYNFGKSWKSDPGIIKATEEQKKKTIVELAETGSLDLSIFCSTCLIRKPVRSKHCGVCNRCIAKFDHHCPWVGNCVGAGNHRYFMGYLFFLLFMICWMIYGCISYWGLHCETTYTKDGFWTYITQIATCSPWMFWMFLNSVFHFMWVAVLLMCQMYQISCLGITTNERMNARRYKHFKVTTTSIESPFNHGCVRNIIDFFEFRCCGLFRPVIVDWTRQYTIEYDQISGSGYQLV
# UniProt Q86U06: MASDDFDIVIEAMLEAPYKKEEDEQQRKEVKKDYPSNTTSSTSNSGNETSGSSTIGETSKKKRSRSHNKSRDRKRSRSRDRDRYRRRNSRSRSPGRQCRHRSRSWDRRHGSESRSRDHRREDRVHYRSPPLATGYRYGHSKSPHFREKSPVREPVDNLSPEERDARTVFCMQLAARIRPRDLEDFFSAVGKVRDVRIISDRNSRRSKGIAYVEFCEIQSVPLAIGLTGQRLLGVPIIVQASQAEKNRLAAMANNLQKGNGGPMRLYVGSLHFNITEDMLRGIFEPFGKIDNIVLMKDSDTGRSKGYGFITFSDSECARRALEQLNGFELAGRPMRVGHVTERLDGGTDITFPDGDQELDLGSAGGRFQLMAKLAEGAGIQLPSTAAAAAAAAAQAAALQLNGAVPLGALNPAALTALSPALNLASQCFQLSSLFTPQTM
# UniProt Q86X83, whole entry: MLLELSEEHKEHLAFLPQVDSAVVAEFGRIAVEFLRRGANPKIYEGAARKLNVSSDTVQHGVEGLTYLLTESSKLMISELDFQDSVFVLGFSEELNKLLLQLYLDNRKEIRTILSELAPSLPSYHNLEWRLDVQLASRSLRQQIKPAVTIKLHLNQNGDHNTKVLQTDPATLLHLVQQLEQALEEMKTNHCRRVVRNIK
# UniProt Q86UT6, whole entry: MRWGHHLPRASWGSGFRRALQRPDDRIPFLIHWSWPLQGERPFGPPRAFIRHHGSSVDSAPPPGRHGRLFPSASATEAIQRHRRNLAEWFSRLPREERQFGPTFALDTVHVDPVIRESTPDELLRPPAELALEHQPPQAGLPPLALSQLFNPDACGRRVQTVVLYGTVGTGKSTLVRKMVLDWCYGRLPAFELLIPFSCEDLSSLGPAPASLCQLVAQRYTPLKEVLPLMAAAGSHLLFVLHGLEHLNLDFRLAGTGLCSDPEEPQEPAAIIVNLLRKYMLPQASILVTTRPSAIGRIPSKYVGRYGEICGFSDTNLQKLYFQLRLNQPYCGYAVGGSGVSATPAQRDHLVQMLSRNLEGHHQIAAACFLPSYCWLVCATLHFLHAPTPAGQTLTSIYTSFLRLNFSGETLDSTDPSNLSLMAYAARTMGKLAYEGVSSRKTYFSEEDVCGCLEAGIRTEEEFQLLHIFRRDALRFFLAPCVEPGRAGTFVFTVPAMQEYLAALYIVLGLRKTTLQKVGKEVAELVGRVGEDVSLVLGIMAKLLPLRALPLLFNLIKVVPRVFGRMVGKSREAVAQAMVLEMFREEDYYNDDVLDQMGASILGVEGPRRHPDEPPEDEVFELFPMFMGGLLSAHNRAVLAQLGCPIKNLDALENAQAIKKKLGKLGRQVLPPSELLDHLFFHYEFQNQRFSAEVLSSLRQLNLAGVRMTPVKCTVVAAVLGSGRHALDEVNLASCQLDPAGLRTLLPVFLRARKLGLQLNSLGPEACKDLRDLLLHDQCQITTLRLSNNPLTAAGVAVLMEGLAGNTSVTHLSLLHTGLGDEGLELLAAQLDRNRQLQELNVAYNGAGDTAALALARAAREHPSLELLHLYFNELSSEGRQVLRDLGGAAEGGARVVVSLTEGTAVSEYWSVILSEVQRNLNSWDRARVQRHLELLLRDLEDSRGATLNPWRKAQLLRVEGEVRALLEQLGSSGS
# UniProt Q7Z5G4, whole entry: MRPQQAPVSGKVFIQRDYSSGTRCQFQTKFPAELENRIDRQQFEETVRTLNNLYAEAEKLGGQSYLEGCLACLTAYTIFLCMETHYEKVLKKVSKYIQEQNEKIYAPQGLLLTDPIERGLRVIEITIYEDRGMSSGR
# UniProt Q7L4P6: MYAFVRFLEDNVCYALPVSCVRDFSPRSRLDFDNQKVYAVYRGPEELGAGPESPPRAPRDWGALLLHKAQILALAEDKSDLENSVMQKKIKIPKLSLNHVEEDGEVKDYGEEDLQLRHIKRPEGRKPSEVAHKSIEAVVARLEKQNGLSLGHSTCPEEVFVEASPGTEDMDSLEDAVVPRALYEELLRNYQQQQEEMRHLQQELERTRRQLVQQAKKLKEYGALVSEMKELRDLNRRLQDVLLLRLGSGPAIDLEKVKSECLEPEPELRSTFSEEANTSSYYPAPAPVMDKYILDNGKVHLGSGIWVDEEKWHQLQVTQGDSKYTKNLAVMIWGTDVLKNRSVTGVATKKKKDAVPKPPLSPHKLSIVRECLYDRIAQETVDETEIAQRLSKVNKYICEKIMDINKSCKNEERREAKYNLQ
# UniProt Q7Z2T5: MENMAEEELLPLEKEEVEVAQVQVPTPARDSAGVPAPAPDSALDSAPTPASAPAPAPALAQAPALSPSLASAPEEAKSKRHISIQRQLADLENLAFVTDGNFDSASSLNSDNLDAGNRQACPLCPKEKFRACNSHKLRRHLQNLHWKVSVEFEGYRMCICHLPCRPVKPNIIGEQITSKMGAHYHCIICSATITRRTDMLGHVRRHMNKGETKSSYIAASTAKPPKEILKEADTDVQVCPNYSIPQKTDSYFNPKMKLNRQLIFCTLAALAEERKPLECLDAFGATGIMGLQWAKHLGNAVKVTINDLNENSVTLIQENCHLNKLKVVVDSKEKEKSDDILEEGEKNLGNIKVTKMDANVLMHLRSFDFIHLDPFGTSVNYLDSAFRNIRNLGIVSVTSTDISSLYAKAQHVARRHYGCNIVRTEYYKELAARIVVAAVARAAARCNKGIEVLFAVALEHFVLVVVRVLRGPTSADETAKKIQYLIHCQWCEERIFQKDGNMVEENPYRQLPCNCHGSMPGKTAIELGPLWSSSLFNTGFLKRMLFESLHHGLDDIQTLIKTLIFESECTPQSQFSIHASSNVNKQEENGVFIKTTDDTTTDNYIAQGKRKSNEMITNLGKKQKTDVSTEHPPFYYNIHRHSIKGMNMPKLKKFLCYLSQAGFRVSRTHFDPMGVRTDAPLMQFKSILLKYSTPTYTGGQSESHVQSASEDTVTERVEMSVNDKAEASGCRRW
# UniProt Q8IUD2: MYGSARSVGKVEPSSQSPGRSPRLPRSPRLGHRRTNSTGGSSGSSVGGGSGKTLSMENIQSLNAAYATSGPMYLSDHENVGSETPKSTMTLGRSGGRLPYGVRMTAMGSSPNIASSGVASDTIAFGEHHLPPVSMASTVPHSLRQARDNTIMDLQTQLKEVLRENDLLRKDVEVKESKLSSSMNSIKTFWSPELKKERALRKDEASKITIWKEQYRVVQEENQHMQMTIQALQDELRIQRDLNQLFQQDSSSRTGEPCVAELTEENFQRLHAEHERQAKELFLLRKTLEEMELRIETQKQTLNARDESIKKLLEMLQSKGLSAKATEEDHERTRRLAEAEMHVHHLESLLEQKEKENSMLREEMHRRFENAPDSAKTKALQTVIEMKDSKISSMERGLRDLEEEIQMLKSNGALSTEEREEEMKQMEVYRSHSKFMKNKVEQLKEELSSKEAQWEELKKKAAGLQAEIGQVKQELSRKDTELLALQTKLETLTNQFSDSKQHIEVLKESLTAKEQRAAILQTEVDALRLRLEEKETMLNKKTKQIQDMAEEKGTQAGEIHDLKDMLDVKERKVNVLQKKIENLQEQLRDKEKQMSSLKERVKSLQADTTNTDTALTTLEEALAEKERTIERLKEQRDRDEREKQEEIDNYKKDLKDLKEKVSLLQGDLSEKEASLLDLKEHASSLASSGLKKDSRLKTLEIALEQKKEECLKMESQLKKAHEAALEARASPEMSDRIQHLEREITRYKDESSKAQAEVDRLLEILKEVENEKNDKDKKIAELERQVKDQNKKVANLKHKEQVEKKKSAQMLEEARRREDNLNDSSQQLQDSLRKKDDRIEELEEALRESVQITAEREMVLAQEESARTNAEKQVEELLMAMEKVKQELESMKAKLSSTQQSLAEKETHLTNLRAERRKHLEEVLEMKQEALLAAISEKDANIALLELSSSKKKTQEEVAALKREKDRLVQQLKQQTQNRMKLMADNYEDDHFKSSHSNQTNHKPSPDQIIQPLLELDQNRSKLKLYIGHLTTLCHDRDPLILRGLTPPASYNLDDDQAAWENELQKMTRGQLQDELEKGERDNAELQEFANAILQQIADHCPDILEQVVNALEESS
# UniProt Q86YS7: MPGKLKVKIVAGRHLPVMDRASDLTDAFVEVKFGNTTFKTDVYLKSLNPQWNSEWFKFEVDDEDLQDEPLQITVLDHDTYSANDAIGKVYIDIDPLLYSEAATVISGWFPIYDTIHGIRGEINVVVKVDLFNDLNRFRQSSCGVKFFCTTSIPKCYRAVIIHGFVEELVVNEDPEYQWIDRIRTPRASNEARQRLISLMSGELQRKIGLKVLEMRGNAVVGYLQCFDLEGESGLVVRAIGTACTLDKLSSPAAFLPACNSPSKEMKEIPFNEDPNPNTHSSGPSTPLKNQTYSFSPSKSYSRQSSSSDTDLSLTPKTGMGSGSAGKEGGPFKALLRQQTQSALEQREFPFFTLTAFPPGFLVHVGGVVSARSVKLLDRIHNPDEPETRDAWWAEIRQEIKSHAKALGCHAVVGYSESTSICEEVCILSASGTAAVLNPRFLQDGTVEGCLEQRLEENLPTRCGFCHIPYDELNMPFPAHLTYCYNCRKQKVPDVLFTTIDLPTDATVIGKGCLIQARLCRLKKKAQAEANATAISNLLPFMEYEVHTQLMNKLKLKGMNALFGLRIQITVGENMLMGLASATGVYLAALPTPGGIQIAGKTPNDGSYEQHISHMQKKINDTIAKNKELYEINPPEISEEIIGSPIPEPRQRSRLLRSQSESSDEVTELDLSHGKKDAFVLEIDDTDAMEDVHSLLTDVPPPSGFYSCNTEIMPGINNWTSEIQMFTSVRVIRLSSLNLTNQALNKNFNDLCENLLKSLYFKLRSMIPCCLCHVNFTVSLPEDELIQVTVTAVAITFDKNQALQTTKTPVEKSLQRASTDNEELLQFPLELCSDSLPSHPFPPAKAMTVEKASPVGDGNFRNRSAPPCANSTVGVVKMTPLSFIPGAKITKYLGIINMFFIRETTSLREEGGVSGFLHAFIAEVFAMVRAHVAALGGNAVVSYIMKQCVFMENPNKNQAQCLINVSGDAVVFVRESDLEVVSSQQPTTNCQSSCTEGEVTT
# ± gives the standard deviation of the averaged measurements. This is a selection; strong and weak results do not stand in their true shares. Small differences around the control level are noise.
# Compound: Nc1ncnc2c1ncn2[C@@H]1O[C@H](COP(=O)(O)OP(=O)(O)OP(=O)(O)O)[C@@H](O)[C@H]1O [adenosine triphosphate]
# Experiment: NP40-soluble protein abundance relative to vehicle (solubility fold change) (ratio); higher = more soluble protein in presence of ATP
# Outline: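 Each value is a fold change relative to the detergent-processed vehicle, calculated per replicate from vsn-normalised intensities. Jurkat crude lysate received eight concentrations (0.1 to 10 mM) for 10 min at room temperature and 3 min at 37 °C, then was solubilised in 0.8% NP40 with benzonase (60 min, 4 °C). The ultracentrifuged supernatant was TMT-labelled and run by LC-MS/MS in three independent experiments.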
Target,NP40-soluble protein abundance (concentration: 0.1mM),NP40-soluble protein abundance (concentration: 0.5mM),NP40-soluble protein abundance (concentration: 1mM),NP40-soluble protein abundance (concentration: 2mM),NP40-soluble protein abundance (concentration: 4mM),NP40-soluble protein abundance (concentration: 6mM),NP40-soluble protein abundance (concentration: 8mM),NP40-soluble protein abundance (concentration: 10mM)
PCGF5 (UniProt Q86SE9),0.927 ± 0.046,1 ± 0.057,0.922 ± 0.16,1.01 ± 0.056,0.981 ± 0.15,0.987 ± 0.087,0.954 ± 0.11,1.07 ± 0.037
ZFYVE16 (UniProt Q7Z3T8),1.01 ± 0.013,0.999 ± 0.024,,,,,,
ASRGL1 (UniProt Q7L266),1.02 ± 0.012,1 ± 0.06,,,,,,
UniProt Q86VR2,0.95 ± 0.05,0.95 ± 0.071,0.91 ± 0.084,0.941 ± 0.088,0.925 ± 0.11,0.869 ± 0.037,0.906 ± 0.064,0.943 ± 0.052
UniProt Q86Y01,0.891 ± 0.057,0.9203 ± 0.0011,0.964 ± 0.033,1.05 ± 0.022,1.12 ± 0.065,1.05 ± 0.088,1.09 ± 0.012,1.15 ± 0.1
ZDHHC17 (UniProt Q8IUH5),1.1 ± 0.041,1.08 ± 0.073,1.08 ± 0.056,0.997 ± 0.021,1.11 ± 0.082,1.02 ± 0.058,1.09 ± 0.063,1.08 ± 0.033
RAB11FIP1 (UniProt Q6WKZ4),1.04 ± 0.026,1.03 ± 0.058,,,,,,
UniProt Q86W42 and related entries,1.11 ± 0.033,1.41 ± 0.062,1.59 ± 0.18,1.69 ± 0.05,2 ± 0.087,2.16 ± 0.071,2.47 ± 0.094,2.55 ± 0.19
UniProt Q86XN8 and related entries,0.953 ± 0.18,0.94 ± 0.24,,,,,,
UniProt Q86U06 and related entries,1.2 ± 0.17,1.29 ± 0.47,1.5 ± 0.41,1.53 ± 0.31,1.48 ± 0.33,1.76 ± 0.46,1.56 ± 0.41,1.46 ± 0.49
UniProt Q6PI26 and related entries,1.06 ± 0.074,1.05 ± 0.074,,,,,,
UniProt Q7L590 and related entries,0.974 ± 0.031,1.01 ± 0.063,1.01 ± 0.11,1.07 ± 0.059,1.13 ± 0.044,1.01 ± 0.057,1.11 ± 0.12,1.14 ± 0.12
UniProt Q86X83 and related entries,1.03 ± 0.034,1 ± 0.036,1.01 ± 0.038,0.975 ± 0.011,0.963 ± 0.024,0.927 ± 0.022,0.956 ± 0.048,0.971 ± 0.021
UniProt Q86UT6 and related entries,1.17 ± 0.024,1.09 ± 0.0094,1.03 ± 0.027,1.081 ± 0.0018,0.99 ± 0.06,1.01 ± 0.18,1.02 ± 0.14,1.03 ± 0.12
UniProt Q7Z5G4 and related entries,0.965 ± 0.035,0.939 ± 0.052,0.928 ± 0.02,0.914 ± 0.015,0.902 ± 0.019,0.885 ± 0.046,0.878 ± 0.014,0.897 ± 0.032
UniProt Q7L4P6 and related entries,1.1 ± 0.036,1.03 ± 0.075,0.995 ± 0.085,1.12 ± 0.2,1.23 ± 0.3,1.2 ± 0.21,1.02 ± 0.096,1.12 ± 0.14

# Just NP40-soluble protein abundance (concentration: 2mM), NP40-soluble protein abundance (concentration: 8mM) and NP40-soluble protein abundance (concentration: 1mM) (2 entries from above):
Target | NP40-soluble protein abundance (concentration: 2mM) | NP40-soluble protein abundance (concentration: 8mM) | NP40-soluble protein abundance (concentration: 1mM)
UniProt Q86Y01 | 1.05 ± 0.022 | 1.09 ± 0.012 | 0.964 ± 0.033
UniProt Q86UT6 and related entries | 1.081 ± 0.0018 | 1.02 ± 0.14 | 1.03 ± 0.027

# Further results follow:

Target,NP40-soluble protein abundance (concentration: 0.1mM),NP40-soluble protein abundance (concentration: 0.5mM),NP40-soluble protein abundance (concentration: 1mM),NP40-soluble protein abundance (concentration: 2mM),NP40-soluble protein abundance (concentration: 4mM),NP40-soluble protein abundance (concentration: 6mM),NP40-soluble protein abundance (concentration: 8mM),NP40-soluble protein abundance (concentration: 10mM)
UniProt Q6UX04,1.03 ± 0.03,1.08 ± 0.055,,,,,,
UniProt Q7Z7K6 and related entries,0.982 ± 0.1,1.01 ± 0.13,1.08 ± 0.058,1.14 ± 0.19,1.33 ± 0.14,1.47 ± 0.24,1.56 ± 0.23,2.03 ± 0.28
UniProt Q7Z2T5,1.02 ± 0.046,1.06 ± 0.037,1.09 ± 0.05,1.16 ± 0.051,1.27 ± 0.013,1.39 ± 0.023,1.55 ± 0.018,1.69 ± 0.051
UniProt Q8IUD2 and related entries,0.9932 ± 0.0082,1.008 ± 0.0043,0.979 ± 0.037,0.985 ± 0.025,0.997 ± 0.025,1.01 ± 0.014,0.988 ± 0.027,0.997 ± 0.025
UniProt Q6PK18 and related entries,1.04 ± 0.092,0.969 ± 0.059,1.06 ± 0.02,1.06 ± 0.061,0.955 ± 0.045,1.03 ± 0.074,1.09 ± 0.15,1.04 ± 0.024
YRDC (UniProt Q86U90),0.961 ± 0.022,0.925 ± 0.027,0.928 ± 0.045,0.959 ± 0.05,0.93 ± 0.028,0.885 ± 0.043,0.896 ± 0.01,0.932 ± 0.017
UniProt Q86UY6,1.09 ± 0.042,1.36 ± 0.035,1.39 ± 0.18,1.46 ± 0.14,1.56 ± 0.21,1.66 ± 0.26,1.69 ± 0.21,1.69 ± 0.15
UniProt Q6SJ93 and related entries,1 ± 0.07,0.958 ± 0.098,,,,,,
UniProt Q86XN7 and related entries,0.943 ± 0.098,0.905 ± 0.14,,,,,,
UniProt Q86YS7 and related entries,1 ± 0.03,1.049 ± 0.0063,,,,,,
TBC1D10C (UniProt Q8IV04),1.06 ± 0.013,0.895 ± 0.14,,,,,,
HEATR3 (UniProt Q7Z4Q2),0.997 ± 0.027,1.03 ± 0.038,,,,,,
ATAD2 (UniProt Q6PL18),1.07 ± 0.041,1.24 ± 0.065,,,,,,
UniProt Q6ZU80 and related entries,1.08 ± 0.074,1.08 ± 0.062,,,,,,
UniProt Q86Y56,1 ± 0.073,0.998 ± 0.027,0.992 ± 0.076,0.985 ± 0.067,0.954 ± 0.036,0.917 ± 0.082,0.937 ± 0.046,0.976 ± 0.052
UniProt Q7Z5K2 and related entries,1.03 ± 0.051,1.04 ± 0.064,1.02 ± 0.011,0.995 ± 0.018,0.993 ± 0.011,1.01 ± 0.026,1.014 ± 0.0065,0.987 ± 0.029
